The target in the test is T1, Sla1 (S. cerevisiae), P32790.
T1 chain: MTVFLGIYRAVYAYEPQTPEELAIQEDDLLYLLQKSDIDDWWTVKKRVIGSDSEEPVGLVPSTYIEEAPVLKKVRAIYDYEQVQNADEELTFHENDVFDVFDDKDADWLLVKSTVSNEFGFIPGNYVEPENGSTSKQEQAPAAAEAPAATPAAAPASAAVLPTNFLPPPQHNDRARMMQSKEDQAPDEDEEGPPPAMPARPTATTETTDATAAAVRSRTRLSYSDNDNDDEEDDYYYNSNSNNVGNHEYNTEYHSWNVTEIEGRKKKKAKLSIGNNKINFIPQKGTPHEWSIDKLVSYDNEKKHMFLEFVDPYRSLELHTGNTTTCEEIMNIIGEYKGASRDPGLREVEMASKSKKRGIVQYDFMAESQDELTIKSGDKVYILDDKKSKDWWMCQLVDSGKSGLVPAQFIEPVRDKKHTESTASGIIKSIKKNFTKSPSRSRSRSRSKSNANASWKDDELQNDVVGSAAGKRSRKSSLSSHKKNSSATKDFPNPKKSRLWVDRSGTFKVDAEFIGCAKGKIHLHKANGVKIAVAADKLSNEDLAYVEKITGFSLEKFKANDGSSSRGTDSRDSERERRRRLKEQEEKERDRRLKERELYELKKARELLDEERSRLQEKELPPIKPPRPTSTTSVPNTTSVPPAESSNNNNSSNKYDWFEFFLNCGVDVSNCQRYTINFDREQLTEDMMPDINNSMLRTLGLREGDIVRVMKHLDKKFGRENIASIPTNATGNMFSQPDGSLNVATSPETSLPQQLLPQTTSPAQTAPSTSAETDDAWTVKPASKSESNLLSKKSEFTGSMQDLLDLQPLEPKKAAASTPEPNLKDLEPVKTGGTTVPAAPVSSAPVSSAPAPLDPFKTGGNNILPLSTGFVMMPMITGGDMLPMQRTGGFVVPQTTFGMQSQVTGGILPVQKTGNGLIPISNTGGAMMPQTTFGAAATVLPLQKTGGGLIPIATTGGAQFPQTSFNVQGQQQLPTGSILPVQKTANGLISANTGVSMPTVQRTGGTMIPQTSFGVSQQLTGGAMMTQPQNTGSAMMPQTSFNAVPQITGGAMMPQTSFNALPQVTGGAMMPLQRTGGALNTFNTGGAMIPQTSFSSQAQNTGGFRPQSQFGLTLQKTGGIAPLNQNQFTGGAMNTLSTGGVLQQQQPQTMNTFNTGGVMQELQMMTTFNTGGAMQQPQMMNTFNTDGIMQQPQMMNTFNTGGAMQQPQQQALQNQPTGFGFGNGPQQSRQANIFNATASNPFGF
Nature of the test: split reporter. The conditions noted are these: remark: other sources report otherwise.

These are yes or no findings as the source states them, for the method shown. In cells and extracts the contact can be indirect. Some results given as binding are weak or reduced against the parent protein; the word gives no strength.

B1: Sla2, P33338 1-968 (protein)
chain: MSRIDSDLQKALKKACSVEETAPKRKHVRACIVYTWDHQSSKAVFTTLKTLPLANDEVQLFKMLIVLHKIIQEGHPSALAEAIRDRDWIRSLGRVHSGGSSYSKLIREYVRYLVLKLDFHAHHRGFNNGTFEYEEYVSLVSVSDPDEGYETILDLMSLQDSLDEFSQIIFASIQSERRNTECKISALIPLIAESYGIYKFITSMLRAMHRQLNDAEGDAALQPLKERYELQHARLFEFYADCSSVKYLTTLVTIPKLPVDAPDVFLINDVDESKEIKFKKREPSVTPARTPARTPTPTPPVVAEPAISPRPVSQRTTSTPTGYLQTMPTGATTGMMIPTATGAANAIFPQATAQMQPDFWANQQAQFANEQNRLEQERVQQLQQQQAQQELFQQQLQKAQQDMMNMQLQQQNQHQNDLIALTNQYEKDQALLQQYDQRVQQLESEITTMDSTASKQLANKDEQLTALQDQLDVWERKYESLAKLYSQLRQEHLNLLPRFKKLQLKVNSAQESIQKKEQLEHKLKQKDLQMAELVKDRDRARLELERSINNAEADSAAATAAAETMTQDKMNPILDAILESGINTIQESVYNLDSPLSWSGPLTPPTFLLSLLESTSENATEFATSFNNLIVDGLAHGDQTEVIHCVSDFSTSMATLVTNSKAYAVTTLPQEQSDQILTLVKRCAREAQYFFEDLMSENLNQVGDEEKTDIVINANVDMQEKLQELSLAIEPLLNIQSVKSNKETNPHSELVATADKIVKSSEHLRVDVPKPLLSLALMIIDAVVALVKAAIQCQNEIATTTSIPLNQFYLKNSRWTEGLISAAKAVAGATNVLITTASKLITSEDNENTSPEQFIVASKEVAASTIQLVAASRVKTSIHSKAQDKLEHCSKDVTDACRSLGNHVMGMIEDDHSTSQQQQPLDFTSEHTLKTAEMEQQVEILKLEQSLSNARKRLGEIRRHAYYNQDDD
As for B1, the binding result is reported as “binds”.

B2: Sla1, P32790 1-1244 (protein)
chain: T1 chain
Consider B2, for which the binding entry was “binds”.

The values are drawn from article doi:10.1101/145664.
